# Laboratory results: patent publication US20210261524A1, “THERAPEUTIC COMPOUNDS AND COMPOSITIONS” (Exithera Pharmaceuticals, Inc., priority 2018, published 2021)
# At least one compound was matched to its structure with a doubt left.
# Tested on: blood coagulation components
# Format: in vivo
# Protocol: The following parameters and endpoints were evaluated in this study: mortality, body weight, physical, clinical pathology parameters (hematology and coagulation), […], and bioanalytical parameters.
# The vehicle and test article were administered via intravenous (IV) infusion once on Day 1 for 135 minutes (initiated 30 minutes prior to starting the Cardiopulmonary Bypass (CPB) and continuing for 105 minutes of CPB). Group 2 animals received a […] IV bolus dose immediately prior to the start of IV infusion. Group 3, 4, and 5 animals received a 10 mg/kg IV bolus dose prior to the start of the IV infusion; with the CPB machine primed with test article at 10 μg/mL.
# Infusion of the Compound 1 was started 30 minutes prior to the animal being placed on the CPB pump. The CPB pump was primed with 0.9% saline.
# Venous and arterial sheaths were flushed with the Compound 1 at a concentration of 10 μg/mL. An IV bolus dose of the test article was administered immediately prior to the start of the infusion. Infusion of Compound 1 was started 30 minutes prior to the animal being placed on the CPB pump. The CPB […] was primed with 10 μg/mL of the Compound 1 prior to initiation of the CPB pump.
# An IV bolus dose of the Compound 1 was administered immediately prior to the start of the infusion. Infusion of Compound 1 was started 30 minutes prior to the animal being placed on the CPB pump.
compound,measurement,setting,value
"C[C@@H](NC(=O)N1C(=O)[C@H](Cc2ccnc(N)c2)[C@H]1C(=O)O)C1CCCCC1 [Compound 1, (2S,3R)-3-((2-aminopyridin-4-yl)methyl)-1-(((R)-1-cyclohexylethyl)carbamoyl)-4-oxoazetidine-2-carboxylic acid]",pressure gradient across the membrane oxygenator,"Compound 1 at multiple doses, IV infusion, entire CPB run (FIG. 10)",stayed consistent through the entire run
same,preventing the activation of blood coagulation in components of cardiopulmonary bypass,"IV infusion with or without bolus, 105-minute CPB run",successful in preventing the activation of blood coagulation
same,aPTT,"all groups, following cessation of Compound 1 infusion and CPB, to the conclusion of the study","trended towards baseline values, but remained moderately prolonged"
same,activated partial thromboplastin time (aPTT),"during Compound 1 infusion and prior to CPB, all animals (FIG. 12)",moderately to markedly prolonged
same,prolongations in aPTT,throughout Compound 1 infusion and CPB,persisted throughout Compound 1 infusion and CPB
